The results in this text go back to paper doi:10.1101/2022.11.30.518523.

The experiment concerns the target T1, Flag-tagged PIN1 (35S-PIN1-Flag) (Arabidopsis) (UniProt Q9C6B8).
T1 sequence: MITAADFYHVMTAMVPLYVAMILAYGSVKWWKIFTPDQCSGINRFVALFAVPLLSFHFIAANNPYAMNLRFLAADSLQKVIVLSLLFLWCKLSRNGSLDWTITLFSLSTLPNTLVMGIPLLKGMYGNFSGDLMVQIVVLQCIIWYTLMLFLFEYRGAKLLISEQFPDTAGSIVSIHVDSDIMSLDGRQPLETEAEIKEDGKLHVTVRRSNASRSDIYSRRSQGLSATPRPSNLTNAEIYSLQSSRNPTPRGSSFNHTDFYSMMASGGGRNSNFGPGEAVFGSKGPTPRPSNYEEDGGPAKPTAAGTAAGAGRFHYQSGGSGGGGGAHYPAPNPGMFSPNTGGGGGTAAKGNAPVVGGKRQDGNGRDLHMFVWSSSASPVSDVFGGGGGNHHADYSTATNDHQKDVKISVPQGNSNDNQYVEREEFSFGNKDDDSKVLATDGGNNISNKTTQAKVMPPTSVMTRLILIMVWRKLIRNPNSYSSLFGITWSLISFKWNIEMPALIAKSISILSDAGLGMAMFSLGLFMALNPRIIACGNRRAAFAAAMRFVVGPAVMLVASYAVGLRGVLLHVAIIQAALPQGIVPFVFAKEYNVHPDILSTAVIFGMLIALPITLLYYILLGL
Description: co-IP.

These are yes or no findings as the source states them, for the method shown. In cells and extracts the contact can be indirect. Some results given as binding are weak or reduced against the parent protein; the word gives no strength. Tags and fused reporters may be left off the sequences shown.

B1: HA-tagged TMK1 (35S-TMK1-HA) (receptor, UniProt P43298 24-942)
chain: DSDGDLSAMLSLKKSLNPPSSFGWSDPDPCKWTHIVCTGTKRVTRIQIGHSGLQGTLSPDLRNLSELERLELQWNNISGPVPSLSGLASLQVLMLSNNNFDSIPSDVFQGLTSLQSVEIDNNPFKSWEIPESLRNASALQNFSANSANVSGSLPGFLGPDEFPGLSILHLAFNNLEGELPMSLAGSQVQSLWLNGQKLTGDITVLQNMTGLKEVWLHSNKFSGPLPDFSGLKELESLSLRDNSFTGPVPASLLSLESLKVVNLTNNHLQGPVPVFKSSVSVDLDKDSNSFCLSSPGECDPRVKSLLLIASSFDYPPRLAESWKGNDPCTNWIGIACSNGNITVISLEKMELTGTISPEFGAIKSLQRIILGINNLTGMIPQELTTLPNLKTLDVSSNKLFGKVPGFRSNVVVNTNGNPDIGKDKSSLSSPGSSSPSGGSGSGINGDKDRRGMKSSTFIGIIVGSVLGGLLSIFLIGLLVFCWYKKRQKRFSGSESSNAVVVHPRHSGSDNESVKITVAGSSVSVGGISDTYTLPGTSEVGDNIQMVEAGNMLISIQVLRSVTNNFSSDNILGSGGFGVVYKGELHDGTKIAVKRMENGVIAGKGFAEFKSEIAVLTKVRHRHLVTLLGYCLDGNEKLLVYEYMPQGTLSRHLFEWSEEGLKPLLWKQRLTLALDVARGVEYLHGLAHQSFIHRDLKPSNILLGDDMRAKVADFGLVRLAPEGKGSIETRIAGTFGYLAPEYAVTGRVTTKVDVYSFGVILMELITGRKSLDESQPEESIHLVSWFKRMYINKEASFKKAIDTTIDLDEETLASVHTVAELAGHCCAREPYQRPDMGHAVNILSSLVELWKPSDQNPEDIYGIDLDMSLPQALKKWQAYEGRSDLESSTSSLLPSLDNTQMSIPTRPYGFAESFTSVDGR
As to B1, the binding entry is reported as “binds”.
